This is an account of results in PubChem BioAssay AID328 (DTP/NCI, 2004).

Molecules are shown by their SMILES. The list is a part of this screen's results and no random one: it is rich in T/C values a quarter to a half above the control, in often repeated tests (any T/C) and in doses without a T/C. Further doses and runs are listed elsewhere. T/C gives the treated animals as a percentage of the vehicle group. Some doses have a count of surviving animals in place of a T/C: the source files T/C as zero there, which appears to mark a toxic dose or a test without result, not a measured value. Some doses without a T/C left all or most animals alive at the check, yet need not have been tolerated: survival well below the control is almost never listed, so the zero probably covers shortened survival too. Counts of survivors are from the toxicity check (mostly the fifth day) where no day follows; animals may have died later. Schedules are NCI's codes, taken here to give the interval after Q, in days (D) or hours (H), and the number of doses after X. Some entries were tested several times; the values are given in rising order. Brackets with × count equal records among those shown. Where survival is the endpoint, this PubChem deposit counts one and a half times the control or more as active, and values a quarter to a half above the control carry no call in these data; other NCI protocols may use other cut-offs. Some T/C values carry the count of animals alive at the toxicity check (mostly the fifth day); where none is given, no animal had died by that day.

The subject of the assay is BDF1 mice, P388 leukemia ip, median survival T/C. Description: NCI In Vivo Anticancer Drug Screen. Data for tumor model P388 Leukemia (intraperitoneal) in B6D2F1 (BDF1) mice. The conditions noted are these: T/C endpoint: median survival time, higher T/C = longer survival. Put shortly: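 Reported as T/C, where T is the survival measurement in dosed animals and C the same measurement in vehicle controls.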

Where [1] appears, read: dose: 400.0 mg/kg/injection, schedule: Q04DX003 (ip), vehicle: saline with Tween-80.
[2] abbreviates: dose: 200.0 mg/kg/injection, schedule: Q01DX009 (ip), vehicle: saline with Tween-80.

As to `COc1cccc2c1C(=O)c1c(O)c3c(c(O)c1C2=O)C[C@@](O)(/C(C)=N/NC(=O)c1ccccc1)C[C@@H]3OC1CC(N)C(O)C(C)O1` (stereo partly specified), the T/C runs as follows: (dose: 0.25 mg/kg/injection, schedule: Q01DX009 (ip), vehicle: water, evaluated on day 28) 100 % of control; (dose: 0.25 mg/kg/injection, schedule: Q01DX009 (ip), vehicle: water, evaluated on day 30) 120, 140, 144 (2×), 167 % of control; (dose: 0.25 mg/kg/injection, schedule: Q01DX009 (ip), vehicle: water, evaluated on day 31) 134 % of control; (dose: 0.25 mg/kg/injection, schedule: Q01DX009 (ip), vehicle: water, evaluated on day 32) 114 and 151 % of control; (dose: 0.5 mg/kg/injection, schedule: Q01DX009 (ip), vehicle: water, evaluated on day 28) 102 % of control; (dose: 0.5 mg/kg/injection, schedule: Q01DX009 (ip), vehicle: water, evaluated on day 30) 156, 160, 162, 180 % of control. Moreover, the T/C (dose: 0.5 mg/kg/injection, schedule: Q01DX009 (ip), vehicle: water, evaluated on day 31) is 152 % of control; the T/C (dose: 0.5 mg/kg/injection, schedule: Q01DX009 (ip), vehicle: water, evaluated on day 32) was 122 and 151 % of control; the T/C (dose: 0.5 mg/kg/injection, schedule: Q01DX009 (ip), vehicle: water, evaluated on day 33) is 131 % of control; the T/C (dose: 0.5 mg/kg/injection, schedule: Q01DX009 (ip), vehicle: water, evaluated on day 60) is 134 % of control; the T/C (dose: 0.75 mg/kg/injection, schedule: Q01DX009 (ip), vehicle: water) is 140 % of control; the T/C (dose: 1.0 mg/kg/injection, schedule: Q01DX009 (ip), vehicle: water, evaluated on day 28) was 109 % of control [5 of 6 alive]. Also, the T/C by setting is: (dose: 1.0 mg/kg/injection, schedule: Q01DX009 (ip), vehicle: water, evaluated on day 30) 135, 166, 171, 182, 189 % of control; (dose: 1.0 mg/kg/injection, schedule: Q01DX009 (ip), vehicle: water, evaluated on day 31) 190 % of control; (dose: 1.0 mg/kg/injection, schedule: Q01DX009 (ip), vehicle: water, evaluated on day 32) 140 and 205 % of control; (dose: 1.0 mg/kg/injection, schedule: Q01DX009 (ip), vehicle: water, evaluated on day 33) 100 % of control [4 of 6 alive]; (dose: 1.0 mg/kg/injection, schedule: Q01DX009 (ip), vehicle: water, evaluated on day 60) 154 % of control; (dose: 2.0 mg/kg/injection, schedule: Q01DX009 (ip), vehicle: water, evaluated on day 28) 145 % of control. Besides, the T/C is, setting by setting: (dose: 2.0 mg/kg/injection, schedule: Q01DX009 (ip), vehicle: water, evaluated on day 30) 139, 180 [5 of 6 alive], 182, 200, 216 % of control; (dose: 2.0 mg/kg/injection, schedule: Q01DX009 (ip), vehicle: water, evaluated on day 31) 209 % of control; (dose: 2.0 mg/kg/injection, schedule: Q01DX009 (ip), vehicle: water, evaluated on day 32) 154 and 160 % of control; (dose: 2.0 mg/kg/injection, schedule: Q01DX009 (ip), vehicle: water, evaluated on day 33) 131 % of control; (dose: 2.0 mg/kg/injection, schedule: Q01DX009 (ip), vehicle: water, evaluated on day 60) 166 % of control; (dose: 4.0 mg/kg/injection, schedule: Q01DX009 (ip), vehicle: water, evaluated on day 28) 190 % of control. For the same compound, the T/C is 117, 129, 180, 241 % of control (dose: 4.0 mg/kg/injection, schedule: Q01DX009 (ip), vehicle: water, evaluated on day 30); 247 % of control [5 of 6 alive] (dose: 4.0 mg/kg/injection, schedule: Q01DX009 (ip), vehicle: water, evaluated on day 31); 145 and 173 % of control (dose: 4.0 mg/kg/injection, schedule: Q01DX009 (ip), vehicle: water, evaluated on day 32); 147 % of control [5 of 6 alive] (dose: 4.0 mg/kg/injection, schedule: Q01DX009 (ip), vehicle: water, evaluated on day 33); 236 % of control (dose: 4.0 mg/kg/injection, schedule: Q01DX009 (ip), vehicle: water, evaluated on day 60); 190 % of control (dose: 8.0 mg/kg/injection, schedule: Q01DX009 (ip), vehicle: water, evaluated on day 28). Besides, the T/C runs as follows: (dose: 8.0 mg/kg/injection, schedule: Q01DX009 (ip), vehicle: water, evaluated on day 30) 157 and 180 % of control; (dose: 8.0 mg/kg/injection, schedule: Q01DX009 (ip), vehicle: water, evaluated on day 31) 276 % of control; (dose: 8.0 mg/kg/injection, schedule: Q01DX009 (ip), vehicle: water, evaluated on day 32) 278 % of control; (dose: 8.0 mg/kg/injection, schedule: Q01DX009 (ip), vehicle: water, evaluated on day 33) 155 % of control; (dose: 8.0 mg/kg/injection, schedule: Q01DX009 (ip), vehicle: water, evaluated on day 60) 111 % of control. For the same compound, the survivor count by setting is: (dose: 0.25 mg/kg/injection, schedule: Q01DX009 (ip), vehicle: water) 5 of 6; (dose: 0.5 mg/kg/injection, schedule: Q01DX009 (ip), vehicle: water) 6 of 6; (dose: 4.0 mg/kg/injection, schedule: Q01DX009 (ip), vehicle: water) 6 of 6; (dose: 6.0 mg/kg/injection, schedule: Q01DX009 (ip), vehicle: water) 8 of 8; (dose: 8.0 mg/kg/injection, schedule: Q01DX009 (ip), vehicle: water) 5 of 6 (2×) and 6 of 6; (dose: 12.0 mg/kg/injection, schedule: Q01DX009 (ip), vehicle: water) 8 of 8. Further, the survivor count reads like this: (dose: 16.0 mg/kg/injection, schedule: Q01DX009 (ip), vehicle: water) 6 of 6; (dose: 24.0 mg/kg/injection, schedule: Q04DX003 (ip), vehicle: saline) 6 of 6; (dose: 30.0 mg/kg/injection, schedule: Q04DX003 (ip), vehicle: water) 6 of 8.
In the case of `Cn1c(CC(O)(C(F)(F)Cl)C(F)(F)Cl)cc(=O)n1-c1ccccc1`, the survivor count under setting [1] was 1 of 6.
With `O=C1NC(=O)C(c2cccs2)(c2cccs2)N1`, the survivor count is 2 of 6 (dose: 50.0 mg/kg/injection, schedule: Q01DX009 (ip), vehicle: water); 3 of 6 (dose: 200.0 mg/kg/injection, schedule: Q01DX009 (ip), vehicle: water); 0 of 6 (dose: 400.0 mg/kg/injection, schedule: Q01DX009 (ip), vehicle: water); 1 of 6 (dose: 400.0 mg/kg/injection, schedule: Q04DX003 (ip), vehicle: water).
Regarding `O=c1c2ccccc2nc(-c2ccccc2)n1-c1cc(C(F)(F)F)cc(C(F)(F)F)c1`, the survivor count is listed as 6 of 6 (dose: 50.0 mg/kg/injection, schedule: Q01DX009 (ip), vehicle: saline with Tween-80); 6 of 6 (dose: 100.0 mg/kg/injection, schedule: Q01DX009 (ip), vehicle: saline with Tween-80); 6 of 6 under setting [2].
Consider `CCN/C(C)=C\C(=O)OCC`, for which the T/C runs as follows: (dose: 178.0 mg/kg/injection, schedule: Q01DX009 (ip), vehicle: Klucel (hydroxypropylcellulose) (HPC)) 148 % of control; (dose: 400.0 mg/kg/injection, schedule: Q01DX009 (ip), vehicle: Klucel (hydroxypropylcellulose) (HPC)) 133 % of control.
On to `NC(CCl)=NC1CCCCC1`, for which the T/C was 130 % of control (dose: 33.0 mg/kg/injection, schedule: Q04DX003 (ip), vehicle: saline); 127 and 130 % of control (dose: 50.0 mg/kg/injection, schedule: Q04DX003 (ip), vehicle: saline).
As for `CC1(c2cccs2)C(=O)NC(=O)N1C(=O)CCl` (stereo unspecified), the survivor count reads like this: under setting [2], 2 of 6; under setting [1], 1 of 6.
As to `N#CC(CC[N+](=O)[O-])(c1ccccc1)C(c1ccccc1)[N+](=O)[O-]` (stereo unspecified), the survivor count is, setting by setting: (dose: 100.0 mg/kg/injection, schedule: Q01DX001 (ip), vehicle: saline with Tween-80) 6 of 6; (dose: 200.0 mg/kg/injection, schedule: Q01DX001 (ip), vehicle: saline with Tween-80) 6 of 6; (dose: 400.0 mg/kg/injection, schedule: Q01DX001 (ip), vehicle: saline with Tween-80) 6 of 6.
